Taken from: PubChem BioAssay AID743121 (NCATS, 2013)

- Aim: 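Genes whose silencing strengthens cell killing by camptothecin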 (primary screen)
- System: MDA-MB-231 cells, a human breast cancer line
- Knock-down reagent: single siRNA against human genes, 20 nM siRNA (0.8 pmol per well)
- Duration: 120 h (drug added 48 h after transfection, read 72 h later)
- Conditions: camptothecin 20 nM (about EC30) for 72 h; vehicle 0.1% DMSO in parallel plates
- Measured: 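CellTiter-Glo ATP signal, scaled to control siRNA as percent viability; sensitisation given as log2 of untreated divided by camptothecin-treated viability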
- Reading the numbers: log2 vehicle/camptothecin viability: higher = stronger sensitisation to camptothecin; viability with camptothecin and viability without drug: higher = more viable cells
- Active means: 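Active genes have an RSA gene-level p-value below 0.001, computed from the ratios of their separate siRNAs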
Here is a random part of about 26,000 reagents. 167 of all reagents (0.63%) were called active. 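Calls are per gene from RSA p-values that are not deposited; an individual active-marked siRNA can sensitise only weakly.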 A number with no mark means an inactive call.

gene knocked down | PubChem SID | log2 vehicle/camptothecin viability | viability with camptothecin (% of control) | viability without drug (% of control)
INPP5E (GeneID 56623) | SID164490542 | -0.515 | 94.5 | 66.1
INPP5E (GeneID 56623) | SID164490544 | 0.0651 | 14.7 | 15.4
INPP5E (GeneID 56623) | SID164490546 | -0.113 | 106 | 97.9
INPP5E (GeneID 56623) | SID164490547 | -0.338 | 21 | 16.6
APC2 (GeneID 10297) | SID164410146 | -0.171 | 75.7 | 67.2
APC2 (GeneID 10297) | SID164410147 | -0.141 | 79 | 71.6
APC2 (GeneID 10297) | SID164410148 | -0.0871 | 19.5 | 18.3
APC2 (GeneID 10297) | SID164410149 | -0.189 | 86.1 | 75.6
CCL5 (GeneID 6352) | SID164387292 | 0.059 | 83.9 | 87.4
CCL5 (GeneID 6352) | SID164387295 | -0.0883 | 44 | 41.3
CCL5 (GeneID 6352) | SID164387296 | 0.00205 | 98.4 | 98.6
MINDY3 (GeneID 80013) | SID164534804 | -0.376 | 71.7 | 55.2
MINDY3 (GeneID 80013) | SID164534808 | -0.332 | 56.6 | 44.9
MINDY3 (GeneID 80013) | SID164534809 | -0.282 | 82.9 | 68.2
MINDY3 (GeneID 80013) | SID164534810 | -0.0787 | 99.1 | 93.8
ABCF1 (GeneID 23) | SID164351835 | 0.141 | 75 | 82.7
ABCF1 (GeneID 23) | SID164351838 | -0.223 | 88.8 | 76.1
ABCF1 (GeneID 23) | SID164351840 | 0.00847 | 54.1 | 54.4
ABCF1 (GeneID 23) | SID164351841 | 0.435 | 4.23 | 5.72
RNF32 (GeneID 140545) | SID164571649 | -0.198 | 103 | 89.7
RNF32 (GeneID 140545) | SID164571650 | -0.188 | 118 | 104
RNF32 (GeneID 140545) | SID164571651 | -0.0675 | 51.7 | 49.3
RNF32 (GeneID 140545) | SID164571652 | -0.254 | 99.5 | 83.5
HTR1B (GeneID 3351) | SID164370384 | -0.193 | 83.7 | 73.2
HTR1B (GeneID 3351) | SID164370386 | -0.334 | 98.8 | 78.4
HTR1B (GeneID 3351) | SID164370387 | -0.509 | 100 | 70.2
HTR1B (GeneID 3351) | SID164370388 | 0.493 | 58.3 | 82
NCCRP1 (GeneID 342897) | SID164658937 | 0.287 | 65.1 | 79.4
NCCRP1 (GeneID 342897) | SID164658938 | 0.105 | 88.7 | 95.4
NCCRP1 (GeneID 342897) | SID164658939 | -0.111 | 97.2 | 90
NCCRP1 (GeneID 342897) | SID164658940 | -0.279 | 107 | 88
TRIM34 (GeneID 53840) | SID164476893 | 0.378 | 55.5 | 72.1
TRIM34 (GeneID 53840) | SID164476898 | -0.179 | 46.2 | 40.8
TRIM34 (GeneID 53840) | SID164476901 | 0.00761 | 8.17 | 8.21
TRIM34 (GeneID 53840) | SID164691602 | -0.201 | 13.5 | 11.7
NCOA6 (GeneID 23054) | SID164445311 | -0.175 | 62.9 | 55.8
NCOA6 (GeneID 23054) | SID164445312 | -0.189 | 78 | 68.4
NCOA6 (GeneID 23054) | SID164445314 | -0.447 | 40 | 29.4
NCOA6 (GeneID 23054) | SID164445316 | -0.223 | 102 | 87.4
C11orf24 (GeneID 53838) | SID164476887 | 0.928 | 33.6 | 63.9
C11orf24 (GeneID 53838) | SID164476888 | -0.082 | 94.4 | 89.2
C11orf24 (GeneID 53838) | SID164476890 | -0.564 | 108 | 73.2
C11orf24 (GeneID 53838) | SID164476891 | 0.214 | 80.9 | 93.8
KIF13B (GeneID 23303) | SID164447128 | 0.0816 | 34.7 | 36.7
KIF13B (GeneID 23303) | SID164447130 | -0.0195 | 116 | 115
KIF13B (GeneID 23303) | SID164447131 | -0.0251 | 85.7 | 84.2
RNF113B (GeneID 140432) | SID164571437 | -0.255 | 47.5 | 39.8
RNF113B (GeneID 140432) | SID164571438 | -0.128 | 39.6 | 36.3
RNF113B (GeneID 140432) | SID164571440 | -0.316 | 87.7 | 70.4
RNF113B (GeneID 140432) | SID164571441 | -0.00267 | 81.9 | 81.7
KMT2D (GeneID 8085) | SID164396199 | -0.264 | 50.7 | 42.2
KMT2D (GeneID 8085) | SID164396201 | 0.194 | 84.9 | 97.1
KMT2D (GeneID 8085) | SID164396202 | -0.0837 | 98.6 | 93.1
KMT2D (GeneID 8085) | SID164396203 | -0.285 | 95.7 | 78.6
ASIC2 (GeneID 40) | SID164351974 | -0.319 | 67.6 | 54.2
ASIC2 (GeneID 40) | SID164351976 | 0.205 | 69.1 | 79.7
ASIC2 (GeneID 40) | SID164351977 | -0.537 | 71.7 | 49.4
ASIC2 (GeneID 40) | SID164351978 | 0.91 | 26.1 | 49
CHMP1B (GeneID 57132) | SID164492867 | -0.0195 | 96.8 | 95.5
CHMP1B (GeneID 57132) | SID164492869 | -0.0095 | 100 | 99.4
CHMP1B (GeneID 57132) | SID164492870 | -0.129 | 52.8 | 48.3
CHMP1B (GeneID 57132) | SID164492872 | -0.252 | 81 | 68
RFPL2 (GeneID 10739) | SID164413113 | 0.11 | 92 | 99.4
RFPL2 (GeneID 10739) | SID164413116 | 0.0965 | 96.9 | 104
RFPL2 (GeneID 10739) | SID164413119 | 0.0522 | 81.4 | 84.4
CSK (GeneID 1445) | SID164360065 | 0.221 | 34 | 39.6
CSK (GeneID 1445) | SID164360066 | -0.212 | 91 | 78.5
CSK (GeneID 1445) | SID164360069 | -0.241 | 83.9 | 70.9
CSK (GeneID 1445) | SID164360071 | -0.101 | 106 | 99
JOSD2 (GeneID 126119) | SID164567730 | 0.0383 | 40.2 | 41.3
JOSD2 (GeneID 126119) | SID164567732 | -0.19 | 61.3 | 53.8
JOSD2 (GeneID 126119) | SID164567733 | 0.372 | 36.5 | 47.2
KIF14 (GeneID 9928) | SID164407487 | 0.471 | 71.2 | 98.6
KIF14 (GeneID 9928) | SID164407492 | -0.143 | 115 | 104
KIF14 (GeneID 9928) | SID164407495 | -0.00355 | 95.6 | 95.4
STK40 (GeneID 83931) | SID164542272 | -0.446 | 67.6 | 49.6
STK40 (GeneID 83931) | SID164542273 | -0.0485 | 86.3 | 83.5
STK40 (GeneID 83931) | SID164542275 | -0.308 | 61.2 | 49.4
STK40 (GeneID 83931) | SID164542276 | 0.172 | 44.4 | 50.1
UCN (GeneID 7349) | SID164393343 | -0.228 | 111 | 95
UCN (GeneID 7349) | SID164393344 | -0.139 | 110 | 99.8
UCN (GeneID 7349) | SID164393346 | -0.0387 | 46.1 | 44.9
UCN (GeneID 7349) | SID164393348 | -0.382 | 38.3 | 29.4
BNIP3 (GeneID 664) | SID164355512 | -0.568 | 77.7 | 52.4
BNIP3 (GeneID 664) | SID164355515 | -0.148 | 108 | 97.7
BNIP3 (GeneID 664) | SID164355516 | 0.396 | 24.9 | 32.8
BNIP3 (GeneID 664) | SID164355517 | -0.16 | 45.3 | 40.6

Ordered by “log2 vehicle/camptothecin viability” (descending): 14 of the entries above.
gene knocked down | PubChem SID | log2 vehicle/camptothecin viability | viability with camptothecin (% of control) | viability without drug (% of control)
INPP5E (GeneID 56623) | SID164490544 | 0.0651 | 14.7 | 15.4
CCL5 (GeneID 6352) | SID164387292 | 0.059 | 83.9 | 87.4
CCL5 (GeneID 6352) | SID164387296 | 0.00205 | 98.4 | 98.6
APC2 (GeneID 10297) | SID164410148 | -0.0871 | 19.5 | 18.3
CCL5 (GeneID 6352) | SID164387295 | -0.0883 | 44 | 41.3
INPP5E (GeneID 56623) | SID164490546 | -0.113 | 106 | 97.9
APC2 (GeneID 10297) | SID164410147 | -0.141 | 79 | 71.6
APC2 (GeneID 10297) | SID164410146 | -0.171 | 75.7 | 67.2
APC2 (GeneID 10297) | SID164410149 | -0.189 | 86.1 | 75.6
MINDY3 (GeneID 80013) | SID164534809 | -0.282 | 82.9 | 68.2
MINDY3 (GeneID 80013) | SID164534808 | -0.332 | 56.6 | 44.9
INPP5E (GeneID 56623) | SID164490547 | -0.338 | 21 | 16.6
MINDY3 (GeneID 80013) | SID164534804 | -0.376 | 71.7 | 55.2
INPP5E (GeneID 56623) | SID164490542 | -0.515 | 94.5 | 66.1
